In the supplement of paper PMC8104966:
Several values for one entry are separate records, joined by “and”; a condition that tells them apart may be missing. Equal values may be shown once. The list shows a part of the results. Repeats in this data set agree poorly, so a single value says little.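 U2OS cells carrying ACE2 were mixed with U2OS cells carrying full-length spike, and fusion was scored by imaging as the share of nuclei showing both cell types' fluorescent markers. A compound counts as an inhibitory hit when it is non-toxic and its fusion z-score falls below -3, meaning more than three standard deviations below the plate's DMSO wells.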

The compounds below were run on U2OS ACE2 x SARS-CoV-2 spike co-culture (assay: cell-cell fusion (fraction fused) z-score vs plate DMSO control; higher = more fusion). Details: 30 µM; 5 h; toxicity class: non-toxic, passed QC.
In the case of `C1CCN2C[C@@H]3C[C@H](CN4CCCC[C@@H]34)[C@H]2C1.I`, the “cell-cell fusion (z-score)” value was inactive: 3.45. With `COc1cc(C(O)CN)ccc1O.Cl` (racemic) [(±)-Normetanephrine hydrochloride] the “cell-cell fusion (z-score)” value was inactive: 2.24. `Nc1nc(Cl)nc2c1ncn2[C@@H]1O[C@H](CO)[C@H](O)C1O` (stereo partly drawn) [2-Chloroadenosine] was tested, and the “cell-cell fusion (z-score)” value was inactive: 0.646. In the case of `NS(=O)(=O)c1ccc(C(=O)O)cc1`, the “cell-cell fusion (z-score)” value was inactive: 2. For `CN/C(=C\[N+](=O)[O-])NCCSCc1ccc(CN(C)C)o1.Cl` [Ranitidine hydrochloride], the “cell-cell fusion (z-score)” value was inactive: 3.5. With `CN/C(=C\[N+](=O)[O-])NCCSCc1ccc(CN(C)C)o1.Cl` the “cell-cell fusion (z-score)” value was inactive: 1.94. For `C[N+](C)(C)C[C@H](O)CC(=O)[O-]`, the “cell-cell fusion (z-score)” value was inactive: 2.28. In the case of `C=CC[C@@H]1/C=C(\C)C[C@H](C)C[C@H](OC)[C@H]2O[C@@](O)(C(=O)C(=O)N3CCCC[C@H]3C(=O)O[C@H](/C(C)=C/[C@@H]3CC[C@@H](O)[C@H](OC)C3)[C@H](C)[C@@H](O)CC1=O)[C@H](C)C[C@@H]2OC` [Tacrolimus], the “cell-cell fusion (z-score)” value was active: -15.8. In the case of `C/C=C(/C)C(=O)O[C@H]1CC[C@@]2(C)[C@@H]3CC[C@H]4[C@]5(O)C[C@H](O)[C@@]6(O)[C@@H](CN7C[C@@H](C)CC[C@H]7[C@@]6(C)O)[C@]5(O)C[C@@]42O[C@]13O.Cl`, the “cell-cell fusion (z-score)” value was inactive: 0.944. `CNC(=O)c1cc(Oc2ccc(NC(=O)Nc3ccc(Cl)c(C(F)(F)F)c3)cc2)ccn1` [Sorafenib] was tested, and the “cell-cell fusion (z-score)” value was active: -6.7. `Cn1nnc(-c2ccc(-c3ccc(N4C[C@H](CO)OC4=O)cc3F)cn2)n1` [Torezolid] was tested, and the “cell-cell fusion (z-score)” value was inactive: 2.42. With `Cl.O=C1NCCc2[nH]c(-c3ccncc3)cc21` the “cell-cell fusion (z-score)” value was inactive: 2.31 and inactive: 0.2. With `CC(=O)OCC(COC(C)=O)OC(C)=O` the “cell-cell fusion (z-score)” value was inactive: 2.54. For `C[C@@H]1O[C@@H](O[C@H]2C[C@@H](O)[C@]3(CO)C4C(CC[C@]3(O)C2)[C@@]2(O)CC[C@H](C3=CC(=O)OC3)[C@@]2(C)C[C@H]4O)[C@H](O)[C@H](O)[C@H]1O.O.O.O.O.O.O.O.O` (stereo partly drawn), the “cell-cell fusion (z-score)” value was inactive: 1.61. `CCCCCCCCCCCCCCCC(=O)OCC(O)[C@H]1OC(=O)C(O)=C1O` (stereo partly drawn) was tested, and the “cell-cell fusion (z-score)” value was inactive: 0.937. `CN1CCC[C@@H]1Cc1c[nH]c2ccc(Nc3ncccc3[N+](=O)[O-])cc12` was tested, and the “cell-cell fusion (z-score)” value was inactive: -2.41. For `CC#CC(=O)N1CCC[C@H]1c1nc(-c2ccc(C(=O)Nc3ccccn3)cc2)c2c(N)nccn12` [Acalabrutinib], the “cell-cell fusion (z-score)” value was inactive: 1.12. With `CC1(C)CCC(c2ccc(Cl)cc2)=C(CN2CCN(c3ccc(C(=O)NS(=O)(=O)c4ccc(N[C@H](CCN5CCOCC5)CSc5ccccc5)c(S(=O)(=O)C(F)(F)F)c4)cc3)CC2)C1` [ABT-263 (Navitoclax)] the “cell-cell fusion (z-score)” value was inactive: 2.22.
